Results reported in PubChem BioAssay AID540276 (National Center for Advancing Translational Sciences (NCATS), 2011).
About 5,400 (1.8%) of roughly 300,000 compounds were called active. This list was built around the results that the source calls inconclusive (neither active nor inactive); the mix of calls is not that of the screen. Calls come from the whole dose curve; tested in HEK293 cells. Where the call is inconclusive, the potency comes from a doubtful curve fit.
Potency is the fitted concentration of half-maximal effect.

Test: qHTS for inhibitors of binding or entry into cells for Marburg Virus
Settings: Marburg virus pseudotyped entry inhibition, cell reporter; series mostly up to 37.8 µM
In the case of `CCN(CC(=O)NCc1ccc(F)cc1)C(=O)c1oc2ccccc2c1C`, the Potency is reported as active: 8.91 µM. In the case of `CCOC(=O)c1sc2nc(C)nc(Nc3ccccc3)c2c1C`, the Potency is reported as inconclusive: 25.9 µM [inhibitor, single point]. For `COc1ccc(-c2nc(CSCC(=O)NC3CCCc4ccccc43)c(C)o2)cc1OC` (stereo not drawn), the Potency was inconclusive: 10 µM [inhibitor, partial curve, poor fit]. In the case of `COc1ccc(Cc2noc(CN(C)Cc3cccc(-n4cccn4)c3)n2)cc1OC`, the Potency is reported as inconclusive: 2.51 µM [inhibitor, single point]. In the case of `CCc1ccccc1N1C(=O)c2ccccc2S1(=O)=O`, the Potency is reported as “inactive”. In the case of `CCN(CC)C(=O)N1CCN(S(=O)(=O)c2c(C)cc(C)cc2C)CC1`, the Potency is reported as inconclusive: 29.1 µM [inhibitor, single point]. In the case of `Oc1ccc(-c2ccccc2)cc1CN1CCCCCC1`, the Potency is reported as inconclusive: 12.6 µM [inhibitor, partial curve, poor fit]. For `Cc1ccc(C(=O)c2nccn2C)cc1C`, the Potency was inconclusive: 11.2 µM [activator, partial curve]. In the case of `Cc1nnsc1C(=O)Oc1ccc(C#N)cc1`, the Potency is reported as “inactive”. With `CCn1nnnc1SCC(=O)Nc1ccc(N(C)C)cc1` the Potency was inconclusive: 6.31 µM [activator, partial curve, poor fit]. For `CCCc1cc(=O)[nH]c(SCC(=O)c2c(N)n(C)c(=O)n(C)c2=O)n1`, the Potency was “inactive”. For `Cc1cc(C)n2nc(C(=O)NCc3ccco3)cc2n1`, the Potency was “inactive”. For `CCOc1ccc(CC(=O)OCN2C(=O)c3ccccc3C2=O)cc1`, the Potency was “inactive”. For `Cc1cc(OCC(F)(F)C(F)(F)C(F)(F)C(F)(F)C(F)(F)C(F)F)nc(N)n1`, the Potency was inconclusive: 29.1 µM [inhibitor, single point]. For `COC(=O)c1cc(NC(=O)CN(c2ccccc2OC)S(=O)(=O)c2ccccc2)ccc1Cl`, the Potency was inconclusive: 4.47 µM [inhibitor, partial curve]. For `Cc1nn(C)cc1C(C)NC(=O)c1cc(COc2cccc3cnccc23)on1` (stereo not drawn), the Potency was inconclusive: 3.55 µM [inhibitor, full curve]. For `Cc1c(C(=O)Nc2ccccn2)oc2c(Cl)cccc12`, the Potency was inconclusive: 31.6 µM [activator, single point]. With `CCOC(=O)C1CCN(S(=O)(=O)c2ccc(OC)c(OC)c2)CC1` the Potency was “inactive”. In the case of `O=[N+]([O-])c1ccccc1/C=C/c1ccc2ccccc2n1`, the Potency is reported as inconclusive: 3.16 µM [activator, partial curve, poor fit]. With `CC(C)CC(=O)Nc1ccc2c(c1)OCO2` the Potency was inconclusive: 35.5 µM [inhibitor, single point]. With `O=C(O)C1Nc2c(Cl)cc(Cl)cc2C2C=CCC12` (stereo not drawn) the Potency was “inactive”. For `CCCNc1nc(=S)n(-c2ccccc2)c(C)c1C(C)=O`, the Potency was “inactive”. With `c1ccc(CCc2ccccc2-c2nc(-c3cccnc3)no2)cc1` the Potency was inconclusive: 35.5 µM [inhibitor, single point]. For `O=C(OCC(=O)N1N=C(c2ccc(Cl)cc2)CC1c1ccco1)c1cncc(Br)c1` (stereo not drawn), the Potency was “inactive”. For `COc1cccc(C(=O)O/N=C(\N)Cc2ccc(Cl)cc2)c1`, the Potency was “inactive”. With `CC(C)C(=O)Nc1cccc(C(=O)Nc2nccs2)c1` the Potency was inconclusive: 35.5 µM [activator, single point]. In the case of `O=C(Cn1nnc(-c2ccccc2)n1)Nc1cccc(S(=O)(=O)N2CCCC2)c1`, the Potency is reported as “inactive”. With `O=C(Nc1ccncc1)C1CCCN(S(=O)(=O)c2cccc3cccnc23)C1` (stereo not drawn) the Potency was “inactive”. In the case of `CC(C)NCCCCOc1ccccc1-c1ccccc1`, the Potency is reported as inconclusive: 16.4 µM [inhibitor, partial curve, poor fit]. For `COc1ccc(N=C2SCCCN2C)cc1`, the Potency was inconclusive: 1.83 µM [inhibitor, full curve]. For `O=C(/C=C/NCc1ccc(F)cc1)c1ccccc1`, the Potency was inconclusive: 0.0891 µM [activator, full curve, poor fit]. For `COC(=O)[C@H]1[C@@H](c2cccc(C(F)(F)F)c2)NC(=O)N(Cc2ccccc2)[C@@H]1C`, the Potency was “inactive”. In the case of `Cc1ccc(S(=O)(=O)N2CCN(c3ccnc4cc(Cl)ccc34)CC2)cc1`, the Potency is reported as active: 5.01 µM. For `CSc1ccc(CN(C)C(=O)c2cccc(S(=O)(=O)N3CCN(Cc4ccccc4)CC3)c2)cc1`, the Potency was inconclusive: 11.2 µM [inhibitor, partial curve, poor fit]. In the case of `O=C(COC(=O)c1cc(-c2ccccc2Cl)nc2ccccc12)Nc1ncc(C(F)(F)F)cc1Cl`, the Potency is reported as “inactive”. In the case of `Cc1ccc(NC(=O)c2ccco2)cc1C`, the Potency is reported as inconclusive: 0.251 µM [activator, full curve, poor fit]. For `Cc1ccc(Cl)cc1NC(=O)c1nnn(Cc2ccccc2)c1N`, the Potency was inconclusive: 12.6 µM [inhibitor, single point]. With `CC(C)CC(=O)Nc1nnn(C)n1` the Potency was inconclusive: 4.11 µM [inhibitor, single point]. For `O=C(COc1ccc(Cl)cc1)Nc1ccc2nc(SCC(=O)N3CCOCC3)sc2c1`, the Potency was inconclusive: 35.5 µM [inhibitor, single point]. For `O=C(c1cccs1)c1cn(CC(=O)N2CCc3ccccc3C2)c2ccccc12`, the Potency was inconclusive: 35.5 µM [inhibitor, single point]. In the case of `CCOc1ccc(C(=O)NC2CC(=O)N(c3ccc4c(c3)OCCO4)C2)cc1` (stereo not drawn), the Potency is reported as “inactive”. In the case of `COc1ccc(C(=O)Nc2ccc(S(=O)(=O)Nc3onc(C)c3C)cc2)c(OC)c1`, the Potency is reported as inconclusive: 0.562 µM [activator, full curve, poor fit]. In the case of `Cc1ccc(-c2nnc(Nc3ccc4c(c3)OCO4)c3ccccc23)cc1S(=O)(=O)NCCO`, the Potency is reported as “inactive”. For `COc1cc(OC)cc(C(=O)NN(CCC#N)C2=NS(=O)(=O)c3ccccc32)c1`, the Potency was “inactive”. With `CC1Cc2ccccc2N1S(=O)(=O)c1c(N)n(C)c(=O)n(C)c1=O` (stereo not drawn) the Potency was inconclusive: 2.82 µM [activator, single point]. For `O=C(CSc1nnc(Nc2ccccc2F)s1)NCc1ccco1`, the Potency was “inactive”. With `CC1CCN(S(=O)(=O)c2ccc(NC(=O)Cc3cccs3)cc2)CC1` the Potency was “inactive”. With `Cc1nnc2c3ccccc3nc(Nc3ccccc3C(=O)O)n12` the Potency was “inactive”. In the case of `Cc1c2c(n3c(nc4ccccc43)c1C#N)N(CCN(C)C)CC2`, the Potency is reported as inconclusive: 11.2 µM [inhibitor, partial curve, poor fit]. With `CC(C)Cn1c(N)c(C(=O)CSc2ccccc2)c(=O)n(C)c1=O` the Potency was inconclusive: 0.251 µM [inhibitor, full curve, poor fit]. With `O=C(Cn1c(=O)oc2cc(S(=O)(=O)N3CCCC3)ccc21)N1CCN(c2ccccn2)CC1` the Potency was “inactive”. For `CC12CCC(C(=O)N3CCc4ccccc43)(CC1=O)C2(C)C` (stereo not drawn), the Potency was inconclusive: 10 µM [activator, partial curve, poor fit]. For `CN(CC(=O)Nc1ccc(C#N)cc1)Cc1ccc(Cl)c(Cl)c1`, the Potency was “inactive”. For `Cc1cc(C(=O)N2CCN(c3cccc(Cl)c3)CC2)c2c(C)nn(-c3ccccc3Cl)c2n1`, the Potency was inconclusive: 1.26 µM [inhibitor, partial curve, poor fit]. In the case of `O=C(COC(=O)c1cc(Cl)ccc1O)NNC(=O)c1ccccc1F`, the Potency is reported as inconclusive: 22.4 µM [activator, single point]. With `COc1ccc(CNC(=O)C2=CC(c3ccc(OC)c(OC)c3)=NS(=O)(=O)N2C)cc1` the Potency was inconclusive: 6.31 µM [inhibitor, partial curve, poor fit]. With `O=C(COc1ccc(Cl)cc1)Nc1ccccc1C(=O)NCc1cccnc1` the Potency was inconclusive: 3.98 µM [inhibitor, single point]. With `C/C(=N/NC(=O)CN1CCN(S(=O)(=O)c2ccc(Br)cc2)CC1)c1ccco1` the Potency was “inactive”. With `CCOC(=O)CSc1nc2ccc(NC(=O)COc3ccc(F)cc3)cc2s1` the Potency was “inactive”. With `Cc1noc(C)c1S(=O)(=O)N(CC(=O)N1CCn2c1nc1ccccc12)c1ccc(C(C)C)cc1` the Potency was “inactive”. With `Cc1[nH]n(-c2cccc3ccccc23)c(=O)c1/C=N/NC(=O)c1cccc([N+](=O)[O-])c1` the Potency was inconclusive: 35.5 µM [inhibitor, single point]. With `COc1cccc(CNC(=O)CCCn2ccc3cc(S(=O)(=O)N4CCCC4)ccc32)c1` the Potency was inconclusive: 22.4 µM [inhibitor, single point]. For `COc1ccc(S(=O)(=O)N(CC(=O)N/N=C/c2cccs2)c2cc(C)cc(C)c2)cc1OC`, the Potency was inconclusive: 8.2 µM [inhibitor, partial curve, poor fit]. In the case of `COc1cc(C)cc(CN2CC=C(c3ccccc3)CC2)c1O`, the Potency is reported as inconclusive: 23.1 µM [inhibitor, partial curve, poor fit]. For `O=C1CSC(c2ccc(F)cc2)N1c1nc2ccccc2s1` (stereo not drawn), the Potency was “inactive”. In the case of `O=C(CCc1nnc(COc2ccccc2)o1)NCc1ccccc1`, the Potency is reported as “inactive”. For `COc1ccc(NC(=O)C(Cc2cc(C)cc(C)c2)C(C)C(=O)O)cc1` (stereo not drawn), the Potency was “inactive”. With `O=C(COc1ccc(OCc2ccccc2)cc1)NC1CCOC1=O` (stereo not drawn) the Potency was “inactive”. In the case of `COCCNC(=O)c1ccc(CSc2nc3ccccc3s2)cc1`, the Potency is reported as inconclusive: 1.26 µM [activator, partial curve, poor fit]. In the case of `CC(C)(C)C1CCc2c(sc(NC(=O)c3ccco3)c2C(=O)Nc2ccccc2Cl)C1` (stereo not drawn), the Potency is reported as inconclusive: 6.31 µM [inhibitor, single point]. In the case of `CC(C)NC(=O)Cn1c(=O)cnc2ccccc21`, the Potency is reported as “inactive”. For `COc1cccc(C(=O)NCCS(=O)(=O)N(C)C2CCCCC2)c1`, the Potency was inconclusive: 7.08 µM [activator, partial curve, poor fit]. For `CCN(CC)c1ccc(/C=C(\C#N)C(=O)c2ccc(Br)cc2)cc1`, the Potency was inconclusive: 0.282 µM [activator, partial curve, poor fit].
